# Values from PubChem BioAssay AID1671195 (Yale University, 2021)
# Test: 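Regulators of LDL receptor activity judged by labelled LDL uptake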 (primary screen)
# System: human Huh7 hepatoma cells
# Reagents: siRNA pool against human genes, 18 nM
# Timing: about 2 to 2.5 days of knockdown, then 8 h LDL uptake
# Treatment: DiI-labelled LDL at 30 µg/ml for 8 h, in lipoprotein-deficient serum medium
# Measurement: 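Per-cell DiI-LDL intensity by automated imaging; well means scaled to the plate median and given as a robust z-score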
# Scale: robust z-score: higher = more LDL uptake after knockdown
# Rule for the call: 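a gene counts as active if at least two replicate z-scores exceed ±2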
# The deposit covers about 22,000 reagents; below is a random part of them. In the full data, about 1,510 (6.9%) are marked active. 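Active includes knockdowns raising or lowering LDL uptake; positive z-scores mean more uptake, negative mean less.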 Reagent sequences are not shown.
target gene,"robust z-score, replicate 1","robust z-score, replicate 2","robust z-score, replicate 3",Outcome
OVOL1,1.13,1.16,1.37,inactive
FBXO30,-1.39,-1.31,-1.36,inactive
LINC03062,0.278,-0.167,0.523,inactive
LOC402098 (retired record),0.327,-0.0322,0.518,inactive
IGFL1,0.443,0.732,0.225,inactive
SAXO2,-0.631,-0.717,-0.649,inactive
DEFA5,-0.137,0.17,-1.63,inactive
EIF4G2,0.0256,-0.437,0.023,inactive
LTA,0.0743,-0.0356,0.144,inactive
TNFRSF10A,-3.31,0.592,0.299,inactive
CAMK1,1.7,0.478,1.09,inactive
SNX5,0.435,-0.197,0.347,inactive
OR52E5,-0.206,-0.298,-0.432,inactive
LINC03010,0.38,0.719,1.32,inactive
ENHO,-0.941,-0.39,-0.828,inactive
MPP2,0.0582,0.738,0.42,inactive
CDK3,-0.384,-1.04,-0.68,inactive
ZFAND2A,-0.578,-0.000336,-0.305,inactive
IGSF3,-1.29,-1.02,-1.17,inactive
JHY,1.17,0.613,0.492,inactive
MAD2L1BP,1.85,0.805,-0.485,inactive
CGAS,-0.0942,-0.495,-0.53,inactive
CCT6A,2.26,3.05,-0.607,active

Ordered by “robust z-score, replicate 2” (high to low): 10 of the entries above.
target gene,"robust z-score, replicate 1","robust z-score, replicate 2","robust z-score, replicate 3",Outcome
IGFL1,0.443,0.732,0.225,inactive
LINC03010,0.38,0.719,1.32,inactive
TNFRSF10A,-3.31,0.592,0.299,inactive
CAMK1,1.7,0.478,1.09,inactive
DEFA5,-0.137,0.17,-1.63,inactive
LTA,0.0743,-0.0356,0.144,inactive
SNX5,0.435,-0.197,0.347,inactive
OR52E5,-0.206,-0.298,-0.432,inactive
EIF4G2,0.0256,-0.437,0.023,inactive
SAXO2,-0.631,-0.717,-0.649,inactive

Additional records follow.
target gene,"robust z-score, replicate 1","robust z-score, replicate 2","robust z-score, replicate 3",Outcome
TTL,-0.313,0.931,1.58,inactive
SLC34A2,0.732,0.344,1.05,inactive
PYGM,1.58,1.94,1.98,inactive
FIBCD1,2.3,1.94,1.51,active
GAS2,-1.05,-1.23,-1.42,inactive
PCGF5,-1.22,-1.19,-1.24,inactive
TK1,0.977,1.29,1.38,inactive
LOC400092 (retired record),0.792,-0.164,0.0904,inactive
ZNF578,-1.74,-1.36,-1.66,inactive
KCTD3,-0.232,-0.975,-0.01,inactive
ABHD14A,0.323,1.31,0.191,inactive
HSD17B4,0.253,0.938,0.407,inactive
TRAIP,-1.29,-1.14,-1.03,inactive
RFX6,1.41,1.79,1.72,inactive
LOC440703 (retired record),1.28,0.833,0.779,inactive
SLC26A4,-0.438,-0.414,0.203,inactive
ST8SIA2,-1.48,-1.45,-1.19,inactive
LCE2C,-0.639,-0.995,-0.294,inactive
H2BC12,1.96,1.58,1.63,inactive
LOC400576 (retired record),0.296,0.912,1.07,inactive
PRRG1,0.298,0.878,0.145,inactive
TIGD1,-0.403,0.301,-1.28,inactive
EML4,0.67,1.44,-0.495,inactive
PRKAB1,0.794,0.91,0.789,inactive
GNA12,2.6,2.7,2.56,active
UBE2QL1,0.000518,1.13,0.849,inactive
CYREN,-1.67,-1.44,-1.74,inactive
PIEZO1,-1,-1.53,0.38,inactive
IFITM2,0.228,-0.349,-0.887,inactive
FBXL9P,-0.0872,-1.32,-1.96,inactive
OR10A2,1.1,1.13,0.701,inactive
CASP5,0.662,0.409,1.04,inactive
C1orf50,1.63,0.901,2.12,inactive
PCDH1,0.0861,0.316,0.167,inactive
ADAM12,0.366,0.317,0.453,inactive
SHROOM3,0.0625,0.766,0.548,inactive
NPY2R,-1.51,-1.37,-1.19,inactive
NPBWR2,-0.719,-1.73,-1.32,inactive
GULP1,-2.44,-1.11,-2.51,active
THNSL2,-0.345,0.922,-0.444,inactive
TTC38,0.862,0.0397,1.65,inactive
SPINT4,-0.797,-0.374,-0.343,inactive
PTPN11,0.606,0.117,-0.0408,inactive
EGFL7,-0.777,1.19,-1.36,inactive
CDO1,-1.2,-1.18,-1.37,inactive
